B1: il10ra_site1_sap_19_mot_HHH_b1_03314_af2_000000278_0001_42_55_H_._HHH_b1_07800_0001_0000100003_0000001_0_0001 (protein)
chain: SSSSSDVEELMKELALLSRRVSPEEQELIFQILMEAYHLLANGNPEEAKKLLEEALEELSSSSSS
B2: il10ra_site1_normal_mot_HHH_b2_02927_000000097_0001_42_56_H_._HHH_b2_00498_0001_0000200027_0000001_1 (protein)
chain: SSSSDEEEEEVEELLEEAKHIEDPRERARVLQEASHLALRAGDPEALQLVWRVVKELARRSSSSS
B3: il10ra_site1_sap_23_mot_HHH_b1_02997_000000220_0001_39_52_H_._HHH_b2_02338_af2_0001_0001000022_0000001_0_0001_af2pred_0001 (protein)
chain: SSSSDVEERVEELAKEVEELLENGNPHEAIQVIREIARLAAENNDDEALKIARELLKLVFSSSSS
B4: il10ra_site1_normal_mot_HHH_b2_07569_000000265_0001_38_56_H_._HHH_b2_03475_af2_0001_0000200009_0000001_1 (protein)
chain: SSSSSDEEEELEELLEELKKISDPEEASEVAARALRLAFRLGDPEAVQEIWEVFKKIFEGSSSSS
B5: il10ra_site1_normal_mot_HHH_b2_00092_000000181_0001_22_39_H_._HHH_b2_05043_0001_0000300048_0000003_0 (protein)
chain: SSSSAEESFELARRAVELVIRLYKEGNPEEAEKVVEEVKRELEELGNPLAARQLEALRRILSSSS
B6: il10ra_site1_normal_mot_HHH_b2_00441_000000147_0001_1_18_H_._HHH_b1_03059_0001_0000200008_0000001_0_af2pred_0001 (protein)
chain: SSSSTREAARIALHAVRRAFELGDEEFIRRSARFVRWLYEETGDPEVEEALEEIEELLERLSSSS
B7: il10ra_site1_normal_mot_HHH_b2_06767_000000020_0001_41_56_H_._HHH_b2_06012_0001_0000100001_0000001_0 (protein)
chain: SSSSSFEEAAQLQLRVSRAADEGDEELLEELRKELEELLKKLDDERARLAVRFALRLIEAHSSSS
B8: il10ra_site1_normal_mot_HHH_b1_00103_000000293_0001_1_15_H_._HHH_b1_01742_0001_0000100001_0000002_0 (protein)
chain: SSSSDTLEFSVEFALRHAERLLEEGDREKAELILEAILRHVREANNEELLEEIERLLEEVRSSSS
B9: il10ra_site1_sap_21_mot_HHH_b1_06912_af2_000000235_0001_1_15_H_._HHH_b1_06747_af2_0001_0000100002_0000001_1_0001_af2pred_0001 (protein)
chain: SDEELELAIKLAIEKNADPPSVEISVENNEIEVTVHGTDEAAREAETTVRAIAFFAGIPVEVERR
B10: il10ra_site1_normal_mot_5d0551e3c4357af680d60aaa850e4cea_0001_1_af2_000000133_0001_18_33_H_._HHH_b1_00482_0001_0000300004_0000002_0_af2pred_0001 (protein)
chain: SSSSSKLQQLVKALLRLVRQARNEELRETAKLSLKVLKEIAEELNDEEAEELLEEAEELLKSSSS
B11: il10ra_site1_normal_mot_HHH_b2_03220_af2_000000223_0001_23_40_H_._HHH_b1_05042_0001_0000100015_0000001_0 (protein)
chain: SSSSSRELSEEAWELLREILELIYEGDEERAQELLREVEEIAEEANSFALEYTVRILKEQLSSSS
B12: il10ra_site1_sap_16_mot_HHH_b1_06789_af2_000000041_0001_1_20_H_._HHH_b1_08320_0001_0000500022_0000001_0_0001 (protein)
chain: PVNEVIQRLVRLAFREGDPELLHALWKLVKRAAEGDPEAEELLEEVAELLKKDEEEAKRLLKELG
B13: il10ra_site1_sap_12_mot_HHH_b1_05357_000000034_0001_23_39_H_._HHH_b1_02159_0001_0000100003_0000001_0_0001 (protein)
chain: SSSSDARREIYELLREAVELDLEGNPEEAEEVLREAEELAREAGDRLFLAIVEYLQRILNSSSSS
B14: il10ra_site1_normal_mot_HHH_b1_05587_000000266_0001_24_40_H_._HHH_b2_08203_0001_0000100001_0000001_0_af2pred_0001 (protein)
chain: SSSSSSDEEHLKAAKRLLELAVKQGNEQLIEVAARAAKRIAELLNDEETLEEIEKILEEYSSSSS
B15: il10ra_site1_normal_mot_HHH_b2_06255_000000043_0001_1_20_H_._HHH_b2_08380_af2_0001_0000100007_0000001_0 (protein)
chain: SSSSSDELFKEVRRAIELASELKENGNPEEARELLEEVLELAEELGNFAVRFSIRRLLRALSSSS
B16: il10ra_site1_normal_mot_HHH_b1_06786_000000000_0001_1_20_H_._HHH_b1_00599_0001_0000200010_0000002_0_af2pred_0001 (protein)
chain: SSSSNRAEVSQEVIRLLREAFEIEDEEEAREIVEEAVRLAQEGNNLVLRISAELVLRQLRSSSSS
B17: il10ra_site1_normal_mot_HHH_b2_08186_000000021_0001_43_56_H_._HHH_b2_06182_af2_0001_0000600026_0000001_0 (protein)
chain: SSSSDEAEKEVRELIEEAEELAERGNPHEAARVLQEALRIAFEAKDDELLRLLWEVLKRLSSSSS
B18: il10ra_site1_sap_22_mot_HHH_b2_06199_000000213_0001_1_17_H_._HHH_b2_07920_0001_0000300012_0000001_0_0001 (protein)
chain: SEDVEEIEELLKRNVSRAIAALAHLLARSGDPEALKLAMELARLMFRDPEKARKLVEQILEELKK
B19: il10ra_site1_normal_mot_HHH_b1_01731_af2_000000210_0001_41_56_H_._HHH_b1_06757_af2_0001_0000500021_0000002_0 (protein)
chain: SSSDARLLRFASRVILELSEEFNLSQEQLRALAEVLLELLRRGVSEEEIEEILRQVAEELGSSSS
B20: il10ra_site1_normal_mot_HHH_b2_03434_000000017_0001_1_19_H_._HHH_b2_02344_0001_0000400063_0000001_0 (protein)
chain: SSSSSENDELYELLRELIRLASEGDEEKVEELAEEAKELAEKLNSRVLLELIEWVLRMFNSSSSS
B21: il10ra_site1_normal_mot_HHH_b1_06994_000000193_0001_40_55_H_._HHH_b2_08260_0001_0000100002_0000002_0 (protein)
chain: SSSSSSDEVEELAEEARRLAEEEGDEERAELVEAALRLYEQVGSEAFREALEAILRILSSSSSSS

Some of the results follow.

The target of this assay is il10ra, Q13651. Description: yeast display titration.
Consider B1, for which the “apparent Kd” value is “inactive: no binding seen”.

In the case of B2, the “apparent Kd” value was “inactive: no binding seen”.

For the molecule B3, the “apparent Kd” value was “inactive: no binding seen”.

With B4, the “apparent Kd” value is “inactive: no binding seen”.

Consider B5, for which the “apparent Kd” value was “inactive: no binding seen”.

For the molecule B6, the “apparent Kd” value is “inactive: no binding seen”.

On to B7, for which the “apparent Kd” value is “inactive: no binding seen”.

For B8, the “apparent Kd” value was “inactive: no binding seen”.

Turning to B9, the “apparent Kd” value was “inactive: no binding seen”.

As to B10, the “apparent Kd” value was “inactive: no binding seen”.

On to B11, for which the “apparent Kd” value was “inactive: no binding seen”.

In the case of B12, the “apparent Kd” value is “inactive: no binding seen”.

As for B13, the “apparent Kd” value is “inactive: no binding seen”.

For the molecule B14, the “apparent Kd” value was “inactive: no binding seen”.

For B15, the “apparent Kd” value is “inactive: no binding seen”.

For the molecule B16, the “apparent Kd” value is “inactive: no binding seen”.

For B17, the “apparent Kd” value was “inactive: no binding seen”.

With B18, the “apparent Kd” value is “inactive: no binding seen”.

Take B19: the “apparent Kd” value is “inactive: no binding seen”.

Take B20: the “apparent Kd” value was “inactive: no binding seen”.

For B21, the “apparent Kd” value was “inactive: no binding seen”.
